Values from PubChem BioAssay AID743448 (Peter MacCallum Cancer Centre, 2014).
Purpose: 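Third-round triage of 106 confirmed candidates in four colon lines under two drugs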 (follow-up of hits). Cells: four human colon cancer cell lines: HCT116-VR (vorinostat-resistant HCT116 derivative), SW480, SW620 and LIM1215. Knock-down reagent: siRNA pool against human genes, 40 nM siRNA pool. Time to read-out: drug added two days after transfection, read one day later. Treatment: vorinostat 2.5 µM on one half of each plate, etoposide 5 µM on the other half. Read-out: 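Caspase luminescence and viability fluorescence, each expressed relative to mock transfection and also as robust z-scores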. Scale: caspase ratio to mock: higher = more caspase activity than mock; viability ratio to mock: higher = more live cells than mock. Hit rule: 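a row is a hit if caspase relative to mock is 1.6 or above or viability relative to mock is 0.75 or below; wells dying heavily without drug are not called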. Calls: active = caspase or viability hit in this panel; inactive = no change, or unhealthy well.
Shown is one part, drawn at random, of 106 reagents tested. 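Calls are per line and drug panel including etoposide, not vorinostat-specific; gene picks needed hits in two or more extra lines with vorinostat versus etoposide.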 A number with no mark means an inactive call. Further read-outs or replicates are left out here.

The opening 3 records as a preview:
gene symbol	cell line and drug panel	caspase ratio to mock	viability ratio to mock
PCP4	LIM1215 cells with etoposide	3.38 (active)	1.12
PCP4	LIM1215 cells with vorinostat	3.68 (active)	0.98
PCP4	SW480 cells with etoposide	3.46 (active)	0.78

Results, repeating the preview:
gene symbol	cell line and drug panel	caspase ratio to mock	viability ratio to mock
PCP4	LIM1215 cells with etoposide	3.38 (active)	1.12
PCP4	LIM1215 cells with vorinostat	3.68 (active)	0.98
PCP4	SW480 cells with etoposide	3.46 (active)	0.78
PCP4	SW480 cells with vorinostat	1.6	0.74
PCP4	SW620 cells with etoposide	1.34	0.93
PCP4	SW620 cells with vorinostat	1.4	0.86
PCP4	vorinostat-resistant HCT116 cells with etoposide	2.75 (active)	0.82
PCP4	vorinostat-resistant HCT116 cells with vorinostat	2.96 (active)	0.78
CSE1L	LIM1215 cells with etoposide	4.39 (active)	0.85
CSE1L	LIM1215 cells with vorinostat	3.15 (active)	0.88
CSE1L	SW480 cells with etoposide	4.19 (active)	1
CSE1L	SW480 cells with vorinostat	2.19 (active)	1.07
CSE1L	SW620 cells with etoposide	1.64 (active)	0.96
CSE1L	SW620 cells with vorinostat	1.81 (active)	1.14
CSE1L	vorinostat-resistant HCT116 cells with etoposide	3.6 (active)	0.99
CSE1L	vorinostat-resistant HCT116 cells with vorinostat	3.77 (active)	0.93
PSMD4	LIM1215 cells with etoposide	2.93 (active)	0.95
PSMD4	LIM1215 cells with vorinostat	2.91 (active)	1.02
PSMD4	SW480 cells with etoposide	2.2 (active)	1.08
PSMD4	SW480 cells with vorinostat	2.24 (active)	0.92
PSMD4	SW620 cells with etoposide	0.82	0.92
PSMD4	SW620 cells with vorinostat	1.58	0.92
PSMD4	vorinostat-resistant HCT116 cells with etoposide	2.2 (active)	1.04
PSMD4	vorinostat-resistant HCT116 cells with vorinostat	3.5 (active)	0.94
RBBP8	LIM1215 cells with etoposide	2.8 (active)	1.06
RBBP8	LIM1215 cells with vorinostat	2.77 (active)	0.96
RBBP8	SW480 cells with etoposide	2.96 (active)	1
RBBP8	SW480 cells with vorinostat	1.73 (active)	0.98
RBBP8	SW620 cells with etoposide	2.41 (active)	0.98
RBBP8	SW620 cells with vorinostat	1.73 (active)	0.9
RBBP8	vorinostat-resistant HCT116 cells with etoposide	2.34 (active)	0.98
RBBP8	vorinostat-resistant HCT116 cells with vorinostat	2.91 (active)	0.92
MSANTD1	LIM1215 cells with etoposide	2.15 (active)	0.86
MSANTD1	LIM1215 cells with vorinostat	1.97 (active)	0.78
MSANTD1	SW480 cells with etoposide	3.04 (active)	0.64
MSANTD1	SW480 cells with vorinostat	1.85 (active)	0.78
MSANTD1	SW620 cells with etoposide	1.67 (active)	0.9
MSANTD1	SW620 cells with vorinostat	1.58	0.92
MSANTD1	vorinostat-resistant HCT116 cells with etoposide	2.21 (active)	0.82
MSANTD1	vorinostat-resistant HCT116 cells with vorinostat	2.88 (active)	0.78
